Results are given in words; binding and its absence hold for the method and conditions named. For part of these data: A result given as binding can be weak or reduced; the word gives no strength. Where a sequence is shown, tags or fusion partners need not be part of it.
Experiments:
Assay in all cases: two-hybrid
[1] = target: T1, PorN, BACTH fusion (P. gingivalis) (UniProt B2RLE7)
T1 sequence: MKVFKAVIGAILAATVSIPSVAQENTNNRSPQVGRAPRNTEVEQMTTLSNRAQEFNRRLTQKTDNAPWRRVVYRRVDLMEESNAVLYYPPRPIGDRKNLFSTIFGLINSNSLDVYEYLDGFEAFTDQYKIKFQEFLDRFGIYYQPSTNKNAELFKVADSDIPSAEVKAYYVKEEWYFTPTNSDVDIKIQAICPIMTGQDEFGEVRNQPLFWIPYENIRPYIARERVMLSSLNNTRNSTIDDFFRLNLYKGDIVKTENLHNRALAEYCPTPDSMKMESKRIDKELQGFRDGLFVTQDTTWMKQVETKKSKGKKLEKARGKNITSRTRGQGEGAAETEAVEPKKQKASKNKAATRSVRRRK

[2] = target: T2, PorK, BACTH fusion (P. gingivalis) (UniProt B2RLF0)
T2 sequence: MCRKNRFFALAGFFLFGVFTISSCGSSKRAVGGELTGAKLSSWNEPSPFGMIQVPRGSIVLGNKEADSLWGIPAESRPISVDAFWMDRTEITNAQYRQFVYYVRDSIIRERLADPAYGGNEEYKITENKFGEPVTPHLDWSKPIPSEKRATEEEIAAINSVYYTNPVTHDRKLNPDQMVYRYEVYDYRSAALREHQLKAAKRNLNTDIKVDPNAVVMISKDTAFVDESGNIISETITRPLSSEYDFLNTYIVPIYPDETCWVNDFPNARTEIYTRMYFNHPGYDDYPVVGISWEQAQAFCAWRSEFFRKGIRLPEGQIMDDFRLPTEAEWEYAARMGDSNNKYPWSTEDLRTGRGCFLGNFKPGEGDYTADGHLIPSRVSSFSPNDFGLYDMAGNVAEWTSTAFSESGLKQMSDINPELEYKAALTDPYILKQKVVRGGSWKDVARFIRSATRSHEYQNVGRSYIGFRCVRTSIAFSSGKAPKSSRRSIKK

[3] = target: PorW D6 C-terminal domain, BACTH fusion (P. gingivalis)

Question: What does the source list for “PorD without its signal peptide, BACTH fusion (P. gingivalis)”?
Answer: binding [1]: no binding; binding [2]: no binding

B1: PorN, BACTH fusion (protein, UniProt B2RLE7 1-359)
chain: MKVFKAVIGAILAATVSIPSVAQENTNNRSPQVGRAPRNTEVEQMTTLSNRAQEFNRRLTQKTDNAPWRRVVYRRVDLMEESNAVLYYPPRPIGDRKNLFSTIFGLINSNSLDVYEYLDGFEAFTDQYKIKFQEFLDRFGIYYQPSTNKNAELFKVADSDIPSAEVKAYYVKEEWYFTPTNSDVDIKIQAICPIMTGQDEFGEVRNQPLFWIPYENIRPYIARERVMLSSLNNTRNSTIDDFFRLNLYKGDIVKTENLHNRALAEYCPTPDSMKMESKRIDKELQGFRDGLFVTQDTTWMKQVETKKSKGKKLEKARGKNITSRTRGQGEGAAETEAVEPKKQKASKNKAATRSVRRRK
Question: How did the binding [3] turn out when B1 was run?
Answer: binds

— PMC8754138
